Measurements taken from publication PMC8930183, “Structure of the Pf12 and Pf41 heterodimeric complex of Plasmodium falciparum 6-cysteine proteins” (FEMS Microbes, 2022).
No constants are given. Whether binding was seen depends on the method and setting.

Amino acid sequences for entries named in this document (tags omitted). Residues count along the entry.
UniProt Q8I1Y0, residues 21-368: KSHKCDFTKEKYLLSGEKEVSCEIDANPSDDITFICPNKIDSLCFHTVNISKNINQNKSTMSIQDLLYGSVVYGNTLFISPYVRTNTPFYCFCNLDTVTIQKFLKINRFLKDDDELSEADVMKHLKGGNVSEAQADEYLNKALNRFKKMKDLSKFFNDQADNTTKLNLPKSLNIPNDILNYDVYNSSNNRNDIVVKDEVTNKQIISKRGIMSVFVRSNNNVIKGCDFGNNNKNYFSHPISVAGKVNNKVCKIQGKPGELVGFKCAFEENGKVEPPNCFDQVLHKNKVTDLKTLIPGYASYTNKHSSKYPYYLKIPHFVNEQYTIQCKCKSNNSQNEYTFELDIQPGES

B1: Pf12 D1 (residues N28-L172) (domain or fragment, UniProt C6KSX0 28-172)
chain: NLTCDFNDVYKLEFHPNQQTSVTKLCNLTPNVLEKVTIKCGSDKLNYNLYPPTCFEEVYASRNMMHLKKIKEFVIGSSMFMRRSLTPNKINEVSFRIPPNMMPEKPIYCFCENKKTITINGSNGNPSSKKDIINRGIVEIIIPSL
B2: Pf12 D2 (residues E174-S304) (domain or fragment, UniProt C6KSX0 174-304)
chain: EKVKGCDFTTSESTIFSKGYSINEISNKSSNNQQDIVCTVKAHANDLIGFKCPSNYSVEPHDCFVSAFNLSGKNENLENKLKLTNIIMDHYNNTFYSRLPSLISDNWKFFCVCSKDNEKKLVFTVEASISS

Target: octa-histidine tagged Pf41 D1D2 (residues 21-368) (Plasmodium falciparum) (UniProt Q8I1Y0)
Assay: BLI; Octet RED96e; octa-histidine tagged Pf41 loaded on NTA sensors; untagged Pf12 wildtype, mutant or single domain 31-1000 nM; PBS pH 7.4, 0.1% BSA, 0.05% TWEEN-20, 25°C; read-out relative maximum response against wildtype; both purified

Binder | binding
B1 | no binding
B2 | no binding
